The structures appear in SMILES notation. The list shows a part of the results.

By UniProt entry, the sequences of proteins in these tests, tags left out. Where a name states a change or a piece, a line headed by the entry shows the natural chain unless it says otherwise.
UniProt Q7Z7L1: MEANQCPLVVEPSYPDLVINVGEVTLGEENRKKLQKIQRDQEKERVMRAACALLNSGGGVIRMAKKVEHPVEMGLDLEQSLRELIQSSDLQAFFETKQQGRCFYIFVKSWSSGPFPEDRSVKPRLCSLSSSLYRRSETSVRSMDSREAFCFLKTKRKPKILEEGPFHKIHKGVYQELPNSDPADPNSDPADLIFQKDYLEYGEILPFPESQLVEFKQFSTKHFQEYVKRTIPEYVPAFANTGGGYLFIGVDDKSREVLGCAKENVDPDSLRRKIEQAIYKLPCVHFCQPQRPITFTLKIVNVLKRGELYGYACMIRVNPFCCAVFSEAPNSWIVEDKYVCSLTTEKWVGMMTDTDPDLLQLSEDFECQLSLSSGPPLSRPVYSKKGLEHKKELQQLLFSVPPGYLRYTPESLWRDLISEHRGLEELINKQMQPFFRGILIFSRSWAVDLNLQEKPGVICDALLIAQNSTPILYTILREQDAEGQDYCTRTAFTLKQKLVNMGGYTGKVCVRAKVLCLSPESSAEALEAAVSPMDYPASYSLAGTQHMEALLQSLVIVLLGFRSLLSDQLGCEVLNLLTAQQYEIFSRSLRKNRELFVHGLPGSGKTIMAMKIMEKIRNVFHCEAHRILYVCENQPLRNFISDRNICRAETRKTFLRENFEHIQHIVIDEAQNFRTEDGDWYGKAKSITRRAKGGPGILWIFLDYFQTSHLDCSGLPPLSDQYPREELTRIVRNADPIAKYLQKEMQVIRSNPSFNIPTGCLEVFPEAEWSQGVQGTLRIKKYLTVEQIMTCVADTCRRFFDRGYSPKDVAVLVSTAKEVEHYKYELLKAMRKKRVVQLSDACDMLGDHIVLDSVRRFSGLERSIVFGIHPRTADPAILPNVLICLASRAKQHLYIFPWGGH

Assay in all cases: probe-labelled cysteine peptide fold change vs DMSO (competition) (log2 fold change); higher = less target engagement (more negative = stronger competition)
What all share (conditions): THP-1, incubation time: 4 h

The target in test [1] is SLFN11_Q7Z7L1_842_VVQLSDACDMLGDHIVLDSVR (UniProt Q7Z7L1).
Test [2] deals with SLFN11_Q7Z7L1_842_VVQLSDACDMLGDHIVLDSVRR (UniProt Q7Z7L1).
For test [3], the target named is SLTM_Q9NWH9_107_DCELENQEAHEQDGNDELK (UniProt Q9NWH9).
The target in test [4] is SLTM_Q9NWH9_107_DCELENQEAHEQDGNDELKDSEEFGENEEENVHSK (UniProt Q9NWH9).
The target of test [5] is SLTM_Q9NWH9_107_KHEADELSGDASVEDDAFIKDCELENQEAHEQDGNDELK (UniProt Q9NWH9).
The target in the next test is SLTM_Q9NWH9_441_CIAHLHR (UniProt Q9NWH9).
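Note: competitive profiling in live THP-1 cells: cysteine peptides tagged with an iodoacetamide desthiobiotin (IA-DTB) probe, intensity after compound treatment relative to DMSO-treated cells.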

Take `Cc1cc(C(=O)N2CCCN(C(=O)CCl)CC2)ccc1-c1ccccc1` [compound 10]: the “probe-labelled cysteine peptide fold change” value in test [1] (10 µM) is 0.117; in test [1] (50 µM), -0.231; in test [2] (10 µM) it was 0.0644; in test [2] (50 µM), -0.107; in test [3] (10 µM) it was 0.0243; in test [3] (50 µM) it was 0.146. In addition, the “probe-labelled cysteine peptide fold change” value in test [4] (10 µM) is 0.0565; in test [4] (50 µM) it was -0.603; in test [5] (10 µM) it was 0.0217; in test [5] (50 µM), -1.37; with SLTM_Q9NWH9_441_CIAHLHR (10 µM), 0.0864; with SLTM_Q9NWH9_441_CIAHLHR (50 µM), 0.245.

These data come from the supplement of paper PMC12067093, “Discovery and optimisation of a covalent ligand for TRIM25 and its application to targeted protein ubiquitination” (Chemical Science, 2025).
